Values of other authors, collected in patent publication US20150328280A1, “ALISPORIVR FOR TREATMENT OF HEPATITIS C VIRUS INFECTION” (priority 2011, published 2015).
Where two headings read alike, the source gives them in different places. At least one structure is not confirmed: it was looked up by name or label, or the drawing left a doubt.

System: HCV GT1
Conditions: after 4 week peg-IFN/RBV lead in, treatment-naive African American HCV GT1, cited from earlier work

## CC(C)(C)NC(=O)N[C@H](C(=O)N1C[C@H]2[C@@H]([C@H]1C(=O)NC(CC1CCC1)C(=O)C(N)=O)C2(C)C)C(C)(C)C (some centres unmarked) [boceprevir]
Boceprevir with pegylated interferon and ribavirin for 44 weeks
  SVR achieved, % of patients: 53%
response-guided treatment of 24 or 44 weeks, boceprevir plus pegylated interferon and ribavirin
  SVR achieved, % of patients: 42%
